Reference: PubChem BioAssay AID493014 (National Center for Advancing Translational Sciences (NCATS), 2011)
The list shows a part of the results. Further columns of the screen follow, without active or inactive calls. The list favours compounds with an active or inconclusive main result. Potencies come from curve fits of mixed quality, noted in brackets.

Test: qHTS Assay to Find Inhibitors of Chronic Active B-Cell Receptor Signaling
Settings: ABC-DLBCL IkBa-CBG/CBR reporter, luminescence ratio (green luciferase fused to IkBa over red control in TMD8 lymphoma cells), 4 h
Method in brief: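 Cell line TMD8 (human ABC DLBCL), stably expressing tet-inducible CBG68-IkBa fusion and CBR; IMDM/0.5% FBS; cpd up to 46 uM; dox induction, 4 h, 37C/5% CO2; dual luminescence; green/red ratio; MG132 control.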

[1] = measured here: CBR red luminescence, cell number
[2] = measured here: IkBa-CBG green luminescence

COc1cc([N+](=O)[O-])ccc1NC(=O)CSc1nccn1C
AC50 [1]: 12.6 µM [falling, single point] | AC50 [2]: 17.8 µM [rising, partial curve, poor fit]

CCCCC(CCC(=O)Nc1cccc([N+](=O)[O-])c1)C(=O)O (stereo not drawn)
AC50 [1]: 35.5 µM [rising, single point]

CC(CC(=O)Nc1ccc2c(c1)OCCO2)c1ccccc1 (stereo not drawn)
AC50 [1]: 2.91 µM [rising, full curve, poor fit]

CCOC(=O)Cc1csc(NC(=O)CSc2nnc(C3CC3)n2C)n1
AC50 [1]: 6.51 µM [falling, partial curve]

NC(=O)c1c(NC(=O)CSc2nnc(-c3ccco3)n2-c2ccccc2)sc2c1CCC2
AC50 [1]: 17.8 µM [falling, partial curve, poor fit]

Cc1cccc2cc(CN(CC3CCCO3)S(=O)(=O)c3ccccc3)c(=O)[nH]c12 (stereo not drawn)
AC50 [1]: 3.98 µM [falling, full curve]

CCOc1ccccc1N1CCN(c2nc(N)c(C#N)c(CC#N)c2C#N)CC1
AC50 [1]: 0.651 µM [falling, partial curve, poor fit]

Cc1ccc(S(=O)(=O)NC(=O)Nc2cc(C)no2)cc1
AC50 [1]: 6.31 µM [rising, partial curve, poor fit]

COc1ccc(C(=O)OCc2nc(N)nc(Nc3ccccc3C)n2)cc1OC
AC50 [1]: 1.41 µM [rising, partial curve, poor fit] | AC50 [2]: 5.62 µM [falling, partial curve, poor fit]

COC(=O)CN(C#N)c1nc(SC)nc(N(C)C)n1
AC50 [1]: 0.146 µM [falling, full curve, poor fit]

Cc1ccc2c(c1)c1c(n2CC(O)CNC(C)(C)C)CCCC1 (stereo not drawn)
AC50 [1]: 11.2 µM [falling, partial curve, poor fit]

O=C(NNC(=O)c1ccncc1)c1ccccc1
AC50 [1]: 35.5 µM [falling, single point]

COc1ccc(CN2CCSCC2)c(OC)c1C
AC50 [1]: 1 µM [rising, full curve, poor fit]

Cn1cccc1C(=O)NC1CCCCCC1
AC50 [1]: 18.4 µM [falling, partial curve, poor fit]

Cc1c(Cl)cccc1NC(=S)NCCC(c1ccccc1)c1ccccc1
AC50 [1]: 32.6 µM [falling, partial curve, poor fit]

O=C(c1ccccc1)c1sc(N2CCCCCC2)nc1-c1ccccc1
AC50 [1]: 12.6 µM [rising, partial curve, poor fit]

Cc1nnc(N/N=C/c2ccc(-c3ccc(Br)cc3)o2)n1N
AC50 [1]: 3.55 µM [rising, partial curve, poor fit]

COc1ccc(C2(C(=O)Nc3ccc(C)cc3)CCOCC2)cc1
AC50 [1]: 0.794 µM [rising, full curve, poor fit]

Cc1nnc(SCC(=O)Nc2nccs2)n(N)c1=O
AC50 [1]: 7.94 µM [falling, partial curve]

CC(C)C(=O)N1CCN(c2nc(-c3ccc(Cl)cc3)cs2)CC1
AC50 [1]: 3.55 µM [falling, partial curve]

COc1ccc(Cl)cc1C(=O)Nc1nc2ccc(S(C)(=O)=O)cc2s1
AC50 [1]: 3.98 µM [rising, full curve, poor fit]

Cc1ccnc(NC(=O)c2ccc(OCC3CCCO3)cc2)c1 (stereo not drawn)
AC50 [1]: 14.6 µM [falling, partial curve]

CCC(C(=O)OC)n1cnc2c(oc3ccccc32)c1=O (stereo not drawn)
AC50 [1]: 20 µM [rising, partial curve, poor fit]

Cc1cnc(NC(=O)c2cc3ccccc3o2)s1
AC50 [1]: 3.98 µM [falling, full curve]

O=C(CN1CC[n+]2c(-c3cccs3)csc21)c1ccc(Br)cc1
AC50 [1]: 0.562 µM [rising, full curve, poor fit]

CCCCn1c(N)c(S(=O)(=O)c2ccc(C)cc2)c2nc3ccccc3nc21
AC50 [1]: 20.6 µM [falling, partial curve] | AC50 [2]: 25.9 µM [rising, partial curve, poor fit]

COc1cc(-c2ccccc2)nc(N)n1
AC50 [1]: 2.59 µM [falling, partial curve, poor fit]

COc1ccccc1N(CC(=O)Nc1ccc2c(c1)OCO2)S(=O)(=O)c1ccccc1
AC50 [1]: 1.78 µM [falling, partial curve]

CN(C)S(=O)(=O)c1ccc(Cl)c(C(=O)OCC(=O)NC(=O)c2cccn2C)c1
AC50 [1]: 5.8 µM [falling, partial curve]

COc1ccc(CNC(=O)C2CCN(S(=O)(=O)c3ccc4c(c3)CC(C)N4C(=O)C3CC3)CC2)cc1 (stereo not drawn)
AC50 [1]: 6.31 µM [rising, partial curve, poor fit]

Cc1ccc(-n2ncc3c(=O)n(Cc4ccccn4)cnc32)cc1C
AC50 [1]: 25.1 µM [falling, single point]

O=c1c(/C=N/OCc2ccc(Cl)cc2Cl)c[nH]n1-c1cccc(Cl)n1
AC50 [1]: 35.5 µM [falling, single point]

CCCOc1ccc(OCCN2CCCC(C)C2)cc1 (stereo not drawn)
AC50 [1]: 9.2 µM [rising, partial curve]

COc1ccc(-c2cc(C(=O)N3CCCC3)no2)cc1
AC50 [1]: 4.47 µM [falling, partial curve]

Cc1cccc(N2CCN(C(=O)CC(NC(=O)c3ccccc3)c3ccccc3)CC2C)c1 (stereo not drawn)
AC50 [1]: 23.1 µM [rising, single point]

CCN(CC)c1cc(Oc2ccccc2)ncn1
AC50 [1]: 18.4 µM [rising, single point]

O=C(c1ccco1)N1CCN(c2ccc([N+](=O)[O-])cc2F)CC1
AC50 [1]: 35.5 µM [rising, single point]

Cc1cc(NC(=O)c2cc([N+](=O)[O-])ccc2Cl)no1
AC50 [1]: 17.8 µM [falling, single point]

CC(C)N1C2OC(C3OC4C(O3)N(C(C)C)S(=O)(=O)N4C(C)C)OC2N(C(C)C)S1(=O)=O (stereo not drawn)
AC50 [1]: 25.9 µM [falling, partial curve, poor fit]

Cc1cc(C)nc(NC(N)=NCCc2c[nH]c3ccccc23)n1
AC50 [1]: 11.2 µM [falling, partial curve]

Cc1cc(NC(=O)/C=C/c2ccccc2Cl)n(-c2nc3ccccc3[nH]2)n1
AC50 [1]: 10.3 µM [falling, partial curve, poor fit]

COc1ccccc1CNC(=O)C1(NC(=O)Nc2ccc(C)cc2)CCCCC1
AC50 [1]: 6.31 µM [rising, full curve, poor fit]

CCCC(c1nnnn1CS(=O)(=O)c1ccc(C)cc1)N1CCN(CC)CC1 (stereo not drawn)
AC50 [1]: 6.31 µM [rising, single point]

O=C(NNC(=S)Nc1ccccc1)c1cccnc1
AC50 [1]: 11.2 µM [falling, partial curve]

Cn1c(=O)c2c(-c3ccccc3)n(-n3cnnc3)cc2n(C)c1=O
AC50 [1]: 15.8 µM [falling, single point]

O=C1NC(=O)/C(=C\c2ccc(O)cc2O)S1
AC50 [1]: 8.91 µM [falling, partial curve]

O=c1[nH]c(CN2CCN(Cc3ccc4c(c3)OCO4)CC2)nc2sc3c(c12)CCC3
AC50 [1]: 6.51 µM [rising, single point]

COCc1cc(C)nc(N/N=C/c2ccc(-c3ccc(C(=O)O)c(Cl)c3)o2)c1C#N
AC50 [2]: 8.91 µM [rising, partial curve, poor fit]

O=c1c2c3c(sc2n2cnnc2n1C1CCCCC1)CCC3
AC50 [1]: 7.94 µM [rising, partial curve, poor fit]

Cc1ccc(C2=Nc3ccccc3N=C(C(Cl)Cl)C2)cc1
AC50 [1]: 25.1 µM [falling, single point]

CCCCc1ncc(CN2CCN(Cc3ccc(C)cc3)C(CCO)C2)[nH]1 (stereo not drawn)
AC50 [1]: 35.5 µM [falling, single point]

O=C(NCCc1ccccc1)c1noc2c1CCCCC2
AC50 [1]: 11.2 µM [falling, single point]

CCc1ccccc1SCc1noc(C(=O)NCC2CCCO2)c1C(=O)O (stereo not drawn)
AC50 [1]: 20 µM [falling, partial curve, poor fit]

c1coc(CSc2ncnc3c2oc2ccccc23)c1
AC50 [1]: 3.55 µM [rising, partial curve]

COc1ccccc1CNc1nc2nc(C)c(C)c(=O)n2[nH]1
AC50 [1]: 29.1 µM [falling, single point]

O=S(=O)(Cc1ccc(Cl)cc1)N1CCCCCC1
AC50 [1]: 22.4 µM [rising, partial curve, poor fit]

CCCCN1C(=O)/C(=C2/C=CC=CN2C)SC1=S
AC50 [1]: 2.06 µM [rising, partial curve, poor fit]

Cc1ccc(N2C(=O)N(CC(=O)Nc3cccc(C)c3C)C(=O)C2C)cc1 (stereo not drawn)
AC50 [1]: 20.6 µM [rising, single point]

COc1cccc(/C=C2\SC(=O)N(CC(=O)NC3C=CS(=O)(=O)C3)C2=O)c1 (stereo not drawn)
AC50 [1]: 7.08 µM [falling, partial curve]

O=C(NCc1ccccc1)c1nncc(-c2ccccc2)n1
AC50 [1]: 16.4 µM [falling, single point]

Cn1ncc([N+](=O)[O-])c1C(=O)Nc1ccc(-c2nc3ccccc3[nH]2)cc1
AC50 [1]: 32.6 µM [falling, single point]

O=C(/C=C/c1cccs1)c1ccc(N2CCOCC2)cc1
AC50 [1]: 14.1 µM [falling, single point]

COCCn1c(C23CC4CC(CC(C4)C2)C3)n[nH]c1=S
AC50 [1]: 0.116 µM [falling, full curve, poor fit]

COc1ccccc1N1C(C)=CC(=C(C#N)c2nc3ccccc3s2)C=C1C
AC50 [1]: 1.84 µM [falling, single point]

O=C(NC1CCCC1)c1ccc(S(=O)(=O)N2CCOCC2)cc1
AC50 [1]: 16.4 µM [falling, partial curve, poor fit]
